Test results from the supplement of paper PMC10849652.
Some of the results follow.

The chains behind the UniProt entries cited, without tags or fusion partners. Where a name states a change or a piece, a line headed by the entry shows the natural chain unless it says otherwise.
UniProt Q9NZM4: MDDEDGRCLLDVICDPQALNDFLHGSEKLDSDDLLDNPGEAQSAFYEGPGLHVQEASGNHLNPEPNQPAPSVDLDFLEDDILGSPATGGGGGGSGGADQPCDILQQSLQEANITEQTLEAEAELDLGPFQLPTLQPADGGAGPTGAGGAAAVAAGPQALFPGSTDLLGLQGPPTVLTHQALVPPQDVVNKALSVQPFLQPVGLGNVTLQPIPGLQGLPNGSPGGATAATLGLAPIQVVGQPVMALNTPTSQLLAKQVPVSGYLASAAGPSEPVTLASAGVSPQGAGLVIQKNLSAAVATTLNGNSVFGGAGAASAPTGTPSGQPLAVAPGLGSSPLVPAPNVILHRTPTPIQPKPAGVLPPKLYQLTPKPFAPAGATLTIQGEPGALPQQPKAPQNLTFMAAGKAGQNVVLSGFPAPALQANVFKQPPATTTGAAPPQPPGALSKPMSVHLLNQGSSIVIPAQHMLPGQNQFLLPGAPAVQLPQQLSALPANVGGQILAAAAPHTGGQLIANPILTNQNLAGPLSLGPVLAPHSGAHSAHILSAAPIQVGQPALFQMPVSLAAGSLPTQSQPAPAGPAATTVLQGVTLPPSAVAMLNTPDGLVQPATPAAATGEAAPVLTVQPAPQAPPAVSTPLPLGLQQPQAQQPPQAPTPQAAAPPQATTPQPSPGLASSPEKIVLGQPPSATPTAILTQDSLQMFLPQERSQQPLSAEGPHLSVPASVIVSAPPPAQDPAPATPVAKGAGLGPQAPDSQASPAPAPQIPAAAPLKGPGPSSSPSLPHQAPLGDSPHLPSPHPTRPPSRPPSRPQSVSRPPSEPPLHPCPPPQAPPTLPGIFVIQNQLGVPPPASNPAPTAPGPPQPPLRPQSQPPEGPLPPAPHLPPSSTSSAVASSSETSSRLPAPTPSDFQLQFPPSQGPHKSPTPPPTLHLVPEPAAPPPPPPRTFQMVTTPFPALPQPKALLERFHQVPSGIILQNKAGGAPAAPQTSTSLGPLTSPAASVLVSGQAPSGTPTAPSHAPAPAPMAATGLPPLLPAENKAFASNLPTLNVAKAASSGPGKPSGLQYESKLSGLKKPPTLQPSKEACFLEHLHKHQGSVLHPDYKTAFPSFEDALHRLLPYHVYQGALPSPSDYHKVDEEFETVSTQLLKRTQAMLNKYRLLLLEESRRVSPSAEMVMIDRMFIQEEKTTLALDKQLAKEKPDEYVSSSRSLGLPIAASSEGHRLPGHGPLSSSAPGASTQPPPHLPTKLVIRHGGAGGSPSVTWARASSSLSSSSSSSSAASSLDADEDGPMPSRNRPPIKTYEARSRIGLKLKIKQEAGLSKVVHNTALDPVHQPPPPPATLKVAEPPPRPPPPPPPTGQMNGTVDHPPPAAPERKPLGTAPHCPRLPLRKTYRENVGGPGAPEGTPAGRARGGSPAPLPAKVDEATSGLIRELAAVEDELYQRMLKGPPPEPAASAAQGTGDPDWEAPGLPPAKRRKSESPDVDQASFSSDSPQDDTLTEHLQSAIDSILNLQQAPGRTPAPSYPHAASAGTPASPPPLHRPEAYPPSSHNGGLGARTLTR
UniProt Q9BXY8: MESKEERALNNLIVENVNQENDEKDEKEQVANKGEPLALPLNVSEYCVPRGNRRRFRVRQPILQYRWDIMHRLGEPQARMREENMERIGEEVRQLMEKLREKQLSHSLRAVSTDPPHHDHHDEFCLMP
UniProt P15056, whole entry, looked up: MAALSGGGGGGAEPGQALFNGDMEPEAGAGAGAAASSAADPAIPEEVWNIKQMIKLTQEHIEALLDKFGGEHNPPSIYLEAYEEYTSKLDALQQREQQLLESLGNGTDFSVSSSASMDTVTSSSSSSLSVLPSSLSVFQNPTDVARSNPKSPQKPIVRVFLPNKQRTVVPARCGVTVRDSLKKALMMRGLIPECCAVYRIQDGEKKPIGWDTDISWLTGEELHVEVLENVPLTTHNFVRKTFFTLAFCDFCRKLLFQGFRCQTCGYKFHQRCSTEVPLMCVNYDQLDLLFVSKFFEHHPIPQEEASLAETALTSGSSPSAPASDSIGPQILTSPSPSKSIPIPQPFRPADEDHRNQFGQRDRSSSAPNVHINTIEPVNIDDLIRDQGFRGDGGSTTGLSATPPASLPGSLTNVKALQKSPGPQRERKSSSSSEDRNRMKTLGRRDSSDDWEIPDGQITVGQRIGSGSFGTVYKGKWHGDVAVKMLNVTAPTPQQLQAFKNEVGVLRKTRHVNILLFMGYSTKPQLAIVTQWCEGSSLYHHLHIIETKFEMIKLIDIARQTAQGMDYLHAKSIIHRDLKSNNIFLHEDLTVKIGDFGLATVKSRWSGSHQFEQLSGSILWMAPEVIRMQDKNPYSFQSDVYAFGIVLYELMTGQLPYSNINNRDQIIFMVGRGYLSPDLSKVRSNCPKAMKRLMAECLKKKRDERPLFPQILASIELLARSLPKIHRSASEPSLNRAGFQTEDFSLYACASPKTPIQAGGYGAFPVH
UniProt O00512: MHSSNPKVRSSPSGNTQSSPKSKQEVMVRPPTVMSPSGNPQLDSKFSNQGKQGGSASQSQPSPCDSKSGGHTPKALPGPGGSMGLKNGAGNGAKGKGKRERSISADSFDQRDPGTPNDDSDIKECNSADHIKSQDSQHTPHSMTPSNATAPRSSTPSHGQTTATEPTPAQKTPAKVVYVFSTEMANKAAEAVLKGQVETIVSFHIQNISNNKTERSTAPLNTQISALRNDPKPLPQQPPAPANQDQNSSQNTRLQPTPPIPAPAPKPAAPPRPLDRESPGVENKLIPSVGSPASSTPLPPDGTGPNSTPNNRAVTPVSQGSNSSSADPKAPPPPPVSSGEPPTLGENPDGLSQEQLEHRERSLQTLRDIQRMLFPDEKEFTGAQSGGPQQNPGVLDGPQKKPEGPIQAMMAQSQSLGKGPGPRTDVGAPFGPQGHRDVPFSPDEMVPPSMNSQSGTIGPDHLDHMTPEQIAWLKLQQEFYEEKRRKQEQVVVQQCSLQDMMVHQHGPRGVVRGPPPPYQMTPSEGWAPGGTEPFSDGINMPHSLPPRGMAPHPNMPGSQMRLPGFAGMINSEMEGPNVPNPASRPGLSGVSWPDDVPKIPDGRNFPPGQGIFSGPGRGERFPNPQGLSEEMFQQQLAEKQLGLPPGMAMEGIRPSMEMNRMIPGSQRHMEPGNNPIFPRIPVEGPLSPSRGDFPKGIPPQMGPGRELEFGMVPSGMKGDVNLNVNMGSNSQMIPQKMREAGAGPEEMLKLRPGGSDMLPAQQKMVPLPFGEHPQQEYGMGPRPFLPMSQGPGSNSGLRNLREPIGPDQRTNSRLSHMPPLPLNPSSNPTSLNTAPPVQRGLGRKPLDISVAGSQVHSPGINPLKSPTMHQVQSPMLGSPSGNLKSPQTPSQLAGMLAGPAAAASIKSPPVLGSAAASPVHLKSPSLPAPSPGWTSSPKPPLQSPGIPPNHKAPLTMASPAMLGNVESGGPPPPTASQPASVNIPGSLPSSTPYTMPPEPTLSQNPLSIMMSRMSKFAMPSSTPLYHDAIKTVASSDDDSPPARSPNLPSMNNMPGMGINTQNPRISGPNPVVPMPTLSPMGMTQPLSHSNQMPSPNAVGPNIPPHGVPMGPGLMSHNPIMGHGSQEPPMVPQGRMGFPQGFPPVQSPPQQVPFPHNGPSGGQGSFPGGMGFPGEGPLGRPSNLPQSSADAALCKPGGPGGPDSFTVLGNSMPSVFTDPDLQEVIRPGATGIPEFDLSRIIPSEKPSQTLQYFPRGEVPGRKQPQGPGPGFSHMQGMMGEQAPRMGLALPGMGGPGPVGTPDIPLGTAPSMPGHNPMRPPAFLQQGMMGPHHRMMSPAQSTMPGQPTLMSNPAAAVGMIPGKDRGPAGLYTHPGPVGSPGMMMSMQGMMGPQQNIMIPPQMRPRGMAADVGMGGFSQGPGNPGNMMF
UniProt Q06187: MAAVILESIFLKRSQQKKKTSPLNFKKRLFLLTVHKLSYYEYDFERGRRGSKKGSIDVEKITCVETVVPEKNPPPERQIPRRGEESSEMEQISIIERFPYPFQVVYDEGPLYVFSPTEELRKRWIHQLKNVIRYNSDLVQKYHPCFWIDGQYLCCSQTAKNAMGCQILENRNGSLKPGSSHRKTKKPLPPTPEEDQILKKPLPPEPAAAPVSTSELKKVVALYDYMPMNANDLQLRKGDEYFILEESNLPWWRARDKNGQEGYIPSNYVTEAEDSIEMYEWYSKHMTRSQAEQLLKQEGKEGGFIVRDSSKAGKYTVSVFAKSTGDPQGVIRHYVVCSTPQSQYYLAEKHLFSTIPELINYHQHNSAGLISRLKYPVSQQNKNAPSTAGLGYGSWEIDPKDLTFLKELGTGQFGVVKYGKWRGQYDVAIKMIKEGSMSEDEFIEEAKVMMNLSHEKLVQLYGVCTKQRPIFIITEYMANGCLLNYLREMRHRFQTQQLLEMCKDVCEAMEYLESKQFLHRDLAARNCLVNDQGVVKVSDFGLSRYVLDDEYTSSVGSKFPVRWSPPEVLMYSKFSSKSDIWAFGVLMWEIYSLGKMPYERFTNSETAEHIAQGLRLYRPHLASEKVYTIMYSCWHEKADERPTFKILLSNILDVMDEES
UniProt Q9BUT1: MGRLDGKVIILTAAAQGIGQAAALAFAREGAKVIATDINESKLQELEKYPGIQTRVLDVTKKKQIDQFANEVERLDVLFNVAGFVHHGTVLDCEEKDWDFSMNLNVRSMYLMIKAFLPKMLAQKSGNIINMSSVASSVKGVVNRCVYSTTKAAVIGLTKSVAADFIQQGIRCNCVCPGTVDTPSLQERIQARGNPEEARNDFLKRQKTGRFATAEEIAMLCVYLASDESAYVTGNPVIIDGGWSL
UniProt Q9NQY0: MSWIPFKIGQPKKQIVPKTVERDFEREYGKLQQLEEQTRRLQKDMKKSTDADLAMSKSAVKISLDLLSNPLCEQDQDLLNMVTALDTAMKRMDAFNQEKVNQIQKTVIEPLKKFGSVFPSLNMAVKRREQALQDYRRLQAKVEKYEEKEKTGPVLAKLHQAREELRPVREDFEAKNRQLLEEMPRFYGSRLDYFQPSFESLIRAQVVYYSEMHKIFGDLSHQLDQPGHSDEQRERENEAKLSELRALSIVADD
UniProt Q92934: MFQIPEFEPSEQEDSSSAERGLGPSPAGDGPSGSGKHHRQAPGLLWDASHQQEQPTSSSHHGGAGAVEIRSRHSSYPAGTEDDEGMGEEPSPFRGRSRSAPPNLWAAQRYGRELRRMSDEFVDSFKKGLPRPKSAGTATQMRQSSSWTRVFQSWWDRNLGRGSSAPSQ
UniProt Q6PGQ7, whole entry, looked up: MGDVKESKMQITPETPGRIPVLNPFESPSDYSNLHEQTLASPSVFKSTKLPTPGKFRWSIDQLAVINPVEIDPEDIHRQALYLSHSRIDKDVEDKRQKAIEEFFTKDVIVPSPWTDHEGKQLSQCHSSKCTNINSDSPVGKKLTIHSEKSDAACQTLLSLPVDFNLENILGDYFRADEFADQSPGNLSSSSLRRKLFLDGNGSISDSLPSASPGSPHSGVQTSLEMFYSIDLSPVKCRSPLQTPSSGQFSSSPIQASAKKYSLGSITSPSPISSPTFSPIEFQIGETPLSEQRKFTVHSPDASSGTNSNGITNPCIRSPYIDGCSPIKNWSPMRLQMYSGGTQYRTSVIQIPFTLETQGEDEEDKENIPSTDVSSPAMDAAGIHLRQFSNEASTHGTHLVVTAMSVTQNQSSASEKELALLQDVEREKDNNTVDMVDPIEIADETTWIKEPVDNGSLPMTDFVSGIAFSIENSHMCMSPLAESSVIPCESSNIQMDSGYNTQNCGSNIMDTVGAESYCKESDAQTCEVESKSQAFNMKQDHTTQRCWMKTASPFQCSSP
UniProt O43521, whole entry, looked up: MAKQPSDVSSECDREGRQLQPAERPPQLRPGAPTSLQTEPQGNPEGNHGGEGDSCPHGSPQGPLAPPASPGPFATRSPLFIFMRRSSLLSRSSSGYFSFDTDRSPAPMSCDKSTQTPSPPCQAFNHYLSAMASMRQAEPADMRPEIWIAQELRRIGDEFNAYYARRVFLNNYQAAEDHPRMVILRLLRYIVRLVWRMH
UniProt Q8WY22: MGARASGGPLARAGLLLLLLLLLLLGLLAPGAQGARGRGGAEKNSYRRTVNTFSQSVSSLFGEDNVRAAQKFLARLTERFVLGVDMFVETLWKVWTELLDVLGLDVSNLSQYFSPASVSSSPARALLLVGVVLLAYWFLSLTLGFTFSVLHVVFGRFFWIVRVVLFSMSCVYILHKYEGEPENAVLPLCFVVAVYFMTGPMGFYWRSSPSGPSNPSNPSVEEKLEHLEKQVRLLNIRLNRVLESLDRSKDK

Columns and labels:
Experiment in all cases: log2 fold change, soluble protein after heating vs DMSO (PISA); higher = thermal stabilisation; K562 lysate, 10 uM; active = over 0.2 and 3.5 SD of the protein, either way, in both replicates (recomputed)
pictilisib = compound: CS(=O)(=O)N1CCN(Cc2cc3nc(-c4cccc5[nH]ncc45)nc(N4CCOCC4)c3s2)CC1 [pictilisib]
Method in brief: (§1)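 To prepare the extract, K562 pellets were dounce-homogenised in PBS pH 7.4 with 1 mM MgCl2, giving crude material at 1 mg/mL protein. This was treated with 10 μM compound for 30 min, then heated in aliquots for 3 min over 48°C-58°C before pooling and addition of NP-40 to 0.5% at 4°C. Centrifugation at 21,000xg for 90 min left soluble protein in the supernatant, which TMTpro 16plex LC-MS/MS quantified with equalised channel sums. Results are log-two fold changes in thermal stability compared with solvent controls, from duplicates.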

crizotinib = compound: C[C@@H](Oc1cc(-c2cnn(C3CCNCC3)c2)cnc1N)c1c(Cl)ccc(F)c1Cl [crizotinib]
Method in brief: as §1

[1] = compound: C[C@H](C1=CC=C(C=C1)C(=O)NC2=C3C=CNC3=NC=C2)N
Method in brief: as §1

duvelisib = compound: C[C@H](Nc1ncnc2nc[nH]c12)c1cc2cccc(Cl)c2c(=O)n1-c1ccccc1 [duvelisib]
Method in brief: as §1

gandotinib = compound: Cc1cc(Nc2cc(CN3CCOCC3)c3nc(C)c(Cc4ccc(Cl)cc4F)n3n2)n[nH]1 [gandotinib]
Method in brief: as §1

tozasertib = compound: Cc1cc(Nc2cc(N3CCN(C)CC3)nc(Sc3ccc(NC(=O)C4CC4)cc3)n2)n[nH]1 [tozasertib]
Method in brief: as §1

doramapimod = compound: Cc1ccc(-n2nc(C(C)(C)C)cc2NC(=O)Nc2ccc(OCCN3CCOCC3)c3ccccc23)cc1 [doramapimod]
Method in brief: as §1

bafetinib = compound: Cc1ccc(NC(=O)c2ccc(CN3CC[C@H](N(C)C)C3)c(C(F)(F)F)c2)cc1Nc1nccc(-c2cncnc2)n1 [bafetinib]
Method in brief: as §1

[2] = compound: Cc1cccc(CC(=O)N2CCc3c2ccc(-c2cn(C)c4ncnc(N)c24)c3F)n1
Method in brief: as §1

nilotinib = compound: Cc1cn(-c2cc(NC(=O)c3ccc(C)c(Nc4nccc(-c5cccnc5)n4)c3)cc(C(F)(F)F)c2)cn1 [nilotinib]
Method in brief: as §1

[3] = compound: Cc1nc(Nc2n[nH]c3c2CN(C(=O)N[C@H](CN(C)C)c2ccccc2)C3(C)C)c2sccc2n1
Method in brief: as §1

dasatinib = compound: Cc1nc(Nc2ncc(C(=O)Nc3c(C)cccc3Cl)s2)cc(N2CCN(CCO)CC2)n1 [dasatinib]
Method in brief: as §1

[4] = compound: Cc1ncc(-c2ccnc(Nc3ccc(S(C)(=O)=O)cc3)n2)n1C(C)C
Method in brief: as §1

[5] = compound: Cn1cc(-c2ccc3c(c2)CCN3C(=O)Cc2cccc(C(F)(F)F)c2)c2c(N)ncnc21
Method in brief: as §1

quisinostat = compound: Cn1cc(CNCC2CCN(c3ncc(C(=O)NO)cn3)CC2)c2ccccc21 [quisinostat]
Method in brief: as §1

tipifarnib = compound: Cn1cncc1[C@@](N)(c1ccc(Cl)cc1)c1ccc2c(c1)c(-c1cccc(Cl)c1)cc(=O)n2C [tipifarnib]
Method in brief: as §1

[6] = compound: NC(=O)Nc1cc(-c2cccc(F)c2)sc1C(=O)N[C@H]1CCCNC1
Method in brief: as §1

[7] = compound: NC1(c2ccc(-c3nc4ccn5c(=O)[nH]nc5c4cc3-c3ccccc3)cc2)CCC1
Method in brief: as §1

lapatinib = compound: CS(=O)(=O)CCNCc1ccc(-c2ccc3ncnc(Nc4ccc(OCc5cccc(F)c5)c(Cl)c4)c3c2)o1 [lapatinib]
Method in brief: as §1

[8] = compound: NC(=O)c1cnc(N[C@@H]2CCCC[C@@H]2N)nc1Nc1cccc(-n2nccn2)c1
Method in brief: as §1

Target: BAZ1A (UniProt Q9NRL2)
- log2 fold change (pictilisib): inactive: 0.04
- log2 fold change (crizotinib): inactive: -0.103
- log2 fold change [1]: inactive: -0.068
- log2 fold change (duvelisib): inactive: 0.04
- log2 fold change (gandotinib): inactive: 0.026
- log2 fold change (tozasertib): inactive: 0.087
- log2 fold change (doramapimod): inactive: -0.001
- log2 fold change (bafetinib): inactive: -0.031
- log2 fold change [2]: inactive: -0.026
- log2 fold change (nilotinib): inactive: 0.075
- log2 fold change [3]: inactive: 0.07
- log2 fold change (dasatinib): inactive: 0.019
- log2 fold change [4]: inactive: 0.046
- log2 fold change [5]: inactive: -0.043
- log2 fold change (quisinostat): inactive: -0.057
- log2 fold change (tipifarnib): inactive: 0
- log2 fold change [6]: inactive: 0.025
- log2 fold change [7]: inactive: -0.09

Target: BICRA (UniProt Q9NZM4)
- log2 fold change (lapatinib): inactive: -0.099
- log2 fold change (pictilisib): inactive: 0.052
- log2 fold change (crizotinib): inactive: -0.059
- log2 fold change [1]: inactive: -0.027
- log2 fold change (duvelisib): inactive: 0.105
- log2 fold change (gandotinib): inactive: 0.171
- log2 fold change (doramapimod): inactive: 0.014
- log2 fold change (bafetinib): inactive: 0.078
- log2 fold change [2]: inactive: 0.133
- log2 fold change (dasatinib): inactive: 0.088
- log2 fold change [5]: inactive: -0.1
- log2 fold change (quisinostat): inactive: 0.037
- log2 fold change [6]: inactive: -0.004
- log2 fold change [8]: inactive: 0.054
- log2 fold change [7]: inactive: -0.382

Target: BEX2 isoform 2 (UniProt Q9BXY8)
- log2 fold change (lapatinib): inactive: -0.015
- log2 fold change [1]: inactive: -0.181
- log2 fold change (gandotinib): inactive: 0.045
- log2 fold change [2]: inactive: 0.085
- log2 fold change [8]: inactive: -0.024

Target: BAHCC1 (UniProt Q9P281)
- log2 fold change (lapatinib): inactive: -0.117
- log2 fold change (crizotinib): inactive: -0.191
- log2 fold change [1]: active: -0.956
- log2 fold change (duvelisib): inactive: 0.002
- log2 fold change (gandotinib): inactive: 0.006
- log2 fold change (tozasertib): inactive: 0.052
- log2 fold change (doramapimod): inactive: 0.137
- log2 fold change [2]: inactive: 0.234
- log2 fold change (nilotinib): inactive: -0.191
- log2 fold change [3]: inactive: 0.019
- log2 fold change (dasatinib): inactive: -0.144
- log2 fold change [4]: inactive: -0.141
- log2 fold change [5]: inactive: -0.039
- log2 fold change (quisinostat): inactive: -0.328
- log2 fold change (tipifarnib): inactive: 0.031
- log2 fold change [6]: inactive: -0.053
- log2 fold change [8]: inactive: 0.021
- log2 fold change [7]: inactive: 0.07

Target: BRAF (UniProt P15056)
- log2 fold change (pictilisib): inactive: -0.025
- log2 fold change (crizotinib): inactive: -0.099
- log2 fold change [1]: inactive: -0.086
- log2 fold change (duvelisib): inactive: 0.015
- log2 fold change (gandotinib): inactive: 0.014
- log2 fold change (tozasertib): inactive: -0.013
- log2 fold change (bafetinib): active: 0.64
- log2 fold change [2]: inactive: 0.065
- log2 fold change [3]: inactive: 0.011
- log2 fold change [4]: inactive: -0.043
- log2 fold change [5]: inactive: 0.002
- log2 fold change (quisinostat): inactive: -0.173
- log2 fold change (tipifarnib): inactive: -0.006
- log2 fold change [6]: inactive: 0.018
- log2 fold change [8]: inactive: 0.007

Target: BLVRA (UniProt C9J1E1)
- log2 fold change (lapatinib): inactive: 0.012
- log2 fold change (nilotinib): inactive: -0.193
- log2 fold change [3]: inactive: 0.098
- log2 fold change [4]: inactive: 0.158
- log2 fold change (tipifarnib): inactive: -0.147
- log2 fold change [8]: inactive: -0.083

Target: BCL9 (UniProt O00512)
- log2 fold change (pictilisib): inactive: 0.002
- log2 fold change (crizotinib): inactive: 0.008
- log2 fold change [1]: inactive: -0.086
- log2 fold change (gandotinib): inactive: 0.081
- log2 fold change (doramapimod): inactive: -0.039
- log2 fold change (bafetinib): inactive: 0.07
- log2 fold change [2]: inactive: 0.027
- log2 fold change (quisinostat): inactive: -0.024
- log2 fold change [6]: inactive: 0.034
- log2 fold change [7]: inactive: -0.006

Target: BTK isoform 2 (UniProt Q06187)
- log2 fold change (lapatinib): inactive: -0.015
- log2 fold change (pictilisib): inactive: -0.041
- log2 fold change [1]: inactive: -0.148
- log2 fold change (duvelisib): inactive: 0.018
- log2 fold change (gandotinib): inactive: 0.101
- log2 fold change (tozasertib): inactive: -0.012
- log2 fold change (doramapimod): inactive: 0.031
- log2 fold change (bafetinib): inactive: -0.043
- log2 fold change [2]: inactive: 0.178
- log2 fold change (nilotinib): inactive: 0.016
- log2 fold change [3]: inactive: -0.002
- log2 fold change [4]: inactive: 0.015
- log2 fold change [5]: inactive: -0.005
- log2 fold change (quisinostat): inactive: -0.05
- log2 fold change (tipifarnib): inactive: -0.021
- log2 fold change [6]: active: 0.294
- log2 fold change [8]: inactive: 0.032
- log2 fold change [7]: inactive: -0.049

Target: BNIP2 (UniProt H7C096)
- log2 fold change (lapatinib): inactive: -0.014
- log2 fold change (pictilisib): inactive: -0.013
- log2 fold change [1]: inactive: 0.005
- log2 fold change (gandotinib): inactive: -0.057
- log2 fold change (tozasertib): inactive: -0.008
- log2 fold change (bafetinib): inactive: -0.073
- log2 fold change [2]: inactive: 0.123
- log2 fold change [8]: inactive: -0.046

Target: BDH2 (UniProt Q9BUT1)
- log2 fold change (lapatinib): inactive: -0.007
- log2 fold change (pictilisib): inactive: 0.01
- log2 fold change (crizotinib): inactive: 0.062
- log2 fold change (duvelisib): inactive: 0.057
- log2 fold change (tozasertib): inactive: -0.08
- log2 fold change (doramapimod): inactive: -0.075
- log2 fold change (bafetinib): inactive: -0.021
- log2 fold change (nilotinib): inactive: -0.005
- log2 fold change [3]: inactive: -0.064
- log2 fold change (dasatinib): inactive: -0.022
- log2 fold change [4]: inactive: -0.076
- log2 fold change [5]: inactive: 0.147
- log2 fold change (quisinostat): inactive: -0.108
- log2 fold change (tipifarnib): inactive: 0.162
- log2 fold change [6]: inactive: 0.188
- log2 fold change [8]: inactive: -0.044
- log2 fold change [7]: inactive: 0.02

Target: BIN3 (UniProt Q9NQY0)
- log2 fold change (pictilisib): inactive: 0
- log2 fold change (crizotinib): inactive: -0.046
- log2 fold change [1]: inactive: 0.017
- log2 fold change (duvelisib): inactive: 0.033
- log2 fold change (gandotinib): inactive: -0.081
- log2 fold change (doramapimod): inactive: 0.174
- log2 fold change (bafetinib): inactive: -0.052
- log2 fold change [2]: inactive: -0.252
- log2 fold change (dasatinib): inactive: -0.143
- log2 fold change [5]: inactive: -0.08
- log2 fold change (quisinostat): inactive: -0.049
- log2 fold change [6]: inactive: 0.027
- log2 fold change [7]: inactive: 0.145

Target: BAD (UniProt Q92934)
- log2 fold change (pictilisib): inactive: 0.153
- log2 fold change (crizotinib): inactive: -0.089
- log2 fold change [1]: inactive: -0.107
- log2 fold change (duvelisib): inactive: 0.135
- log2 fold change (gandotinib): inactive: 0.055
- log2 fold change (tozasertib): inactive: 0.097
- log2 fold change (doramapimod): inactive: 0.032
- log2 fold change (bafetinib): inactive: -0.002
- log2 fold change [2]: inactive: 0.04
- log2 fold change (dasatinib): inactive: -0.023
- log2 fold change [5]: inactive: 0.021
- log2 fold change (quisinostat): inactive: 0.03
- log2 fold change [6]: inactive: -0.017
- log2 fold change [7]: inactive: 0.113

Target: BORA (UniProt Q6PGQ7)
- log2 fold change (pictilisib): inactive: 0.038
- log2 fold change (crizotinib): inactive: 0.009
- log2 fold change [1]: inactive: 0.023
- log2 fold change (duvelisib): inactive: 0.005
- log2 fold change (gandotinib): inactive: -0.161
- log2 fold change (tozasertib): inactive: 0.001
- log2 fold change (doramapimod): inactive: -0.046
- log2 fold change (bafetinib): inactive: 0.038
- log2 fold change [2]: inactive: -0.103
- log2 fold change (nilotinib): inactive: -0.005
- log2 fold change [3]: inactive: 0.043
- log2 fold change (dasatinib): inactive: 0.034
- log2 fold change [4]: inactive: -0.071
- log2 fold change [5]: inactive: -0.077
- log2 fold change (quisinostat): inactive: 0.085
- log2 fold change (tipifarnib): inactive: -0.007
- log2 fold change [6]: inactive: -0.024
- log2 fold change [7]: inactive: 0.057

Target: BCL2L11 (UniProt O43521)
- log2 fold change (pictilisib): inactive: 0.379
- log2 fold change (crizotinib): inactive: -0.093
- log2 fold change [1]: inactive: 0.069
- log2 fold change (gandotinib): inactive: 0.009
- log2 fold change (doramapimod): inactive: 0.051
- log2 fold change (bafetinib): inactive: -0.049
- log2 fold change [2]: inactive: -0.005
- log2 fold change (quisinostat): inactive: -0.102
- log2 fold change [6]: inactive: 0.119

Target: BRI3BP (UniProt Q8WY22)
- log2 fold change (lapatinib): inactive: -0.023
- log2 fold change (pictilisib): inactive: 0.009
- log2 fold change [1]: inactive: -0.005
- log2 fold change (duvelisib): inactive: 0.103
- log2 fold change (gandotinib): inactive: 0.037
- log2 fold change (tozasertib): inactive: 0.139
- log2 fold change (bafetinib): inactive: -0.049
- log2 fold change [2]: inactive: 0.026
- log2 fold change (nilotinib): inactive: -0.02
- log2 fold change [3]: inactive: -0.037
- log2 fold change (dasatinib): inactive: -0.045
- log2 fold change [4]: inactive: 0.115
- log2 fold change [5]: inactive: -0.05
- log2 fold change (tipifarnib): inactive: 0.189
- log2 fold change [8]: inactive: -0.057
- log2 fold change [7]: inactive: 0.088
